Measurements reported in PubChem BioAssay AID504774 (Drosophila RNAi Screening Center, 2011).
Screen: 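Knock-downs that shift viability of MMS-exposed cells relative to untreated ones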 (primary screen). Cells: Drosophila Kc167 cells. Knock-down reagent: long dsRNA against Drosophila genes, about 0.25 µg dsRNA per well. Time to read-out: about 6 days: 3 days knock-down, then 3 days with or without MMS. Conditions: methyl methanesulphonate 0.004% (w/v) for 3 days after knock-down. Measurement: 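Viability in wells given MMS, read as ATP luminescence, normalised by quantiles plate by plate and averaged across replicates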. Scale: mean viability with MMS: higher = more surviving cells after MMS.
The deposit covers about 23,000 reagents; below is an unselected part of those with a known target gene and a result. 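Values are quantile-normalised luminescence on an arbitrary scale; higher means more cells surviving MMS.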 A plus sign joins genes that one reagent is predicted to hit. Further read-outs or replicates are left out here.

target gene | amplicon | mean viability with MMS
CG4198 | DRSC18354 | 3.57e6
TwdlO | DRSC16043 | 3.52e6
CG13481 | DRSC10023 | 3.54e6
spartin | DRSC12187 | 3.47e6
CG43897 | DRSC10965 | 3.15e6
CG43897 | DRSC10967 | 3.57e6
CG43897 | DRSC21583 | 2.90e6
Ddc | DRSC03314 | 3.58e6
CG14212 | DRSC19568 | 3.58e6
PGRP-SA | DRSC19420 | 3.58e6
Arp2 | DRSC19332 | 3.51e6
CG13427 | DRSC06389 | 3.41e6
CG4009 | DRSC15536 | 3.71e6
CG15093 | DRSC06522 | 3.46e6
G6P | DRSC00414 | 3.42e6
qua | DRSC03598 | 3.49e6
Bulli | DRSC10974 | 3.46e6
Muc68Ca | DRSC10312 | 1.74e6
Muc68Ca | DRSC10313 | 3.52e6
Usp16-45 | DRSC18352 | 3.63e6
Rgk2 | DRSC06503 | 3.57e6
Rgk2 | DRSC21651 | 3.59e6
S-Lap7 | DRSC06374 | 3.55e6
Pig1 | DRSC18698 | 3.43e6
Myo28B1 | DRSC03375 | 3.48e6
Sras | DRSC11287 | 3.56e6
Jhbp2 | DRSC12292 | 3.28e6
Acf | DRSC14101 | 3.40e6
ZnT35C | DRSC01959 | 3.58e6
Gpo3 | DRSC01978 | 3.62e6
Lip1 | DRSC03364 | 3.83e6
CG6138 | DRSC02933 | 3.51e6

Continued (8 carried over from the part before).
target gene | amplicon | mean viability with MMS
Myo28B1 | DRSC03375 | 3.48e6
Sras | DRSC11287 | 3.56e6
Jhbp2 | DRSC12292 | 3.28e6
Acf | DRSC14101 | 3.40e6
ZnT35C | DRSC01959 | 3.58e6
Gpo3 | DRSC01978 | 3.62e6
Lip1 | DRSC03364 | 3.83e6
CG6138 | DRSC02933 | 3.51e6
CR11700 (retired record) | DRSC17794 | 2.28e6
Phyhd1 | DRSC14911 | 3.67e6
Pdh | DRSC11249 | 3.46e6
Kat60 | DRSC12378 | 3.49e6
Hpr1 | DRSC12296 | 3.42e6
Fbl6 | DRSC06335 | 3.49e6
CecA1 | DRSC16603 | 3.46e6
primo-2 + primo-1 | DRSC16511 | 3.52e6
CG9701 | DRSC11093 | 3.46e6
SsRbeta | DRSC11290 | 3.49e6
CG11458 | DRSC11666 | 3.70e6
CG43707 | DRSC00280 | 3.60e6
CG43707 | DRSC22869 | 2.92e6
pcs | DRSC07042 | 3.16e6
oxt | DRSC08522 | 3.46e6
Unc50 | DRSC16561 | 3.70e6
Clamp | DRSC03718 | 3.68e6
Clamp | DRSC21682 | 3.00e6
l(3)76BDm | DRSC11047 | 3.68e6
pch2 | DRSC14368 | 3.64e6
CG3701 (retired record) | DRSC04408 | 3.47e6
CG3701 (retired record) | DRSC04409 | 3.33e6
CG8641 | DRSC11028 | 3.56e6
BomBc3 | DRSC15873 | 3.54e6
CG33557 | DRSC17854 | 3.69e6
CG9521 | DRSC20196 | 3.48e6
CG14086 | DRSC10090 | 3.62e6
CG31468 | DRSC13637 | 3.53e6
Rgk1 (retired record) | DRSC07343 | 3.61e6
Rgk1 (retired record) | DRSC07344 | 2.79e6
PAPLA1 | DRSC03095 | 3.67e6
PAPLA1 | DRSC03096 | 3.64e6
CG34224 | DRSC05269 | 3.56e6
RnrS | DRSC07533 | 2.97e6
CG30172 | DRSC21519 | 3.67e6
Sox100B | DRSC15090 | 3.44e6
Sox100B | DRSC16866 | 4.13e6
